Results reported in doi:10.1101/431023.

T1: dox-inducible 3xFLAG-BirA*-tagged TCF7L1 in the Rosa26 locus (UniProt Q9Z1J1)
T1 sequence: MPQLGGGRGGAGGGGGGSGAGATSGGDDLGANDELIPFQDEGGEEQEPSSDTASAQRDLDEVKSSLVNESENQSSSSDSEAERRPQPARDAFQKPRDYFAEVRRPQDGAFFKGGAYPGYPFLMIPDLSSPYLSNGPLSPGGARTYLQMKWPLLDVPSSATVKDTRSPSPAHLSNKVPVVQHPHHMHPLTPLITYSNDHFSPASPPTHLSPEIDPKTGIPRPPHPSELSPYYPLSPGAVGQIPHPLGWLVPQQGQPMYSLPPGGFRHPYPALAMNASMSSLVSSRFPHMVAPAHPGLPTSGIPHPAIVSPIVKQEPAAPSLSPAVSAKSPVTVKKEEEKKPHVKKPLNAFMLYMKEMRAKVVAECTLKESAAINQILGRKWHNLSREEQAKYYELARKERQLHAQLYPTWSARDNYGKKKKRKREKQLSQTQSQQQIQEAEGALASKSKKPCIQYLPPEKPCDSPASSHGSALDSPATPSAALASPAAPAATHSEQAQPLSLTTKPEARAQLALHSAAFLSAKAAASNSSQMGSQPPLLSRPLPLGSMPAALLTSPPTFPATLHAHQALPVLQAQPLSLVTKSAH

T2: 3xFLAG-BirA*-tagged TCF7L1 at the endogenous TCF7L1 locus (mouse (endogenous in mESCs)) (UniProt Q9Z1J1)
T2 sequence: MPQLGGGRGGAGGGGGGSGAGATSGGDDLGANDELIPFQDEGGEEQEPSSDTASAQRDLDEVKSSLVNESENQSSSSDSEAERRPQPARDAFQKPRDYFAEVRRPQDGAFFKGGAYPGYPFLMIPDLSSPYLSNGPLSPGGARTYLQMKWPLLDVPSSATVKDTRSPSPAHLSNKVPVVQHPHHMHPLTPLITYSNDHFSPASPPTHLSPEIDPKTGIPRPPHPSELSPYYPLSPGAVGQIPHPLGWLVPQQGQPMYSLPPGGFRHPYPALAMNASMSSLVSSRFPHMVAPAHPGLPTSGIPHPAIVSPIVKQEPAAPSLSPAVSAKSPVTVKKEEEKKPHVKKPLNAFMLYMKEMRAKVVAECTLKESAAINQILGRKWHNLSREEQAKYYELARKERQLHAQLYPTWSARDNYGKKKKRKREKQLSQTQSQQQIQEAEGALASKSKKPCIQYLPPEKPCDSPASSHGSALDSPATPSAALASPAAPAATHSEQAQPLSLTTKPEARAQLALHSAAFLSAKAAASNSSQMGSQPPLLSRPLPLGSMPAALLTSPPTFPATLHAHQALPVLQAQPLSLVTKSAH


How the values were obtained:
[1] = target: T1, dox-inducible 3xFLAG-BirA*-tagged TCF7L1 in the Rosa26 locus; assay: proximity labelling
[2] = target: T2, 3xFLAG-BirA*-tagged TCF7L1 at the endogenous TCF7L1 locus (mouse (endogenous in mESCs)); assay: proximity labelling

Row | Binder | binding [1] | binding [2]
1 | BRCA associated protein-1 (BAP1) (protein, UniProt Q99PU7 1-728) MNKGWLELESDPGLFTLLVEDFGVKGVQVEEIYDLQSKCQGPVYGFIFLFKWIEERRSRRKVSTLVDDTSVIDDDIVNNMFFAHQLIPNSCATHALLSVLLNCSNVDLGPTLSRMKDFTKGFSPESKGYAIGNAPELAKAHNSHARPEPRHLPEKQNGLSAVRTMEAFHFVSYVPITGRLFELDGLKVYPIDHGPWGEDEEWTDKARRVIMERIGLATAGEPYHDIRFNLMAVVPDRRIKYETRLHVLKVNRQTVLEALQQLIRVTQPELIQTHKSQESQLPEESKPASSKSPLGLEAGRTPVASECTQTDGAEEVAGSCPQTTTHSPPSKCKLVVKPPGSSLNGVPPNPAPIVQRLPAFLDNHNYAKSPMQEEEDLAAGVGRSRVPVRAPQQYSEDEDDYEDEDEDVQNTNPAIRYKRKGTGKPGSLSNSSDGQLSVLQPNTINVLTEKLQESQKDLSVPLSIKTSSGAGSPAVAVPTHSQPSPTPSNESTDTASEIGSAFNSPLRSPIRSANPTRPSSPVTSHISKVLFGEDDSLLRVDCIRYNRAVRDLGPVISTGLLHLAEDGVLSPLALTEGGKGSSPSTRSSQGSQGSSGLEEKEVVEVTESRDKPGLNRSSEPLSGEKYSPKELLALLKCVEAEIANYEACLKEEVEKRKKFKIDDQRRTHNYDEFICTFISMLAQEGMLANLVEQNISVRRRQGVSIGRLHKQRKPDRRKRSRPYKAKRQ | binds | binds
2 | TBL1X (protein, UniProt Q9QXE7 1-527) MSITSDEVNFLVYRYLQESGFSHSAFTFGIESHISQSNINGTLVPPAALISILQKGLQYVEAEISINEDGTVFDGRPIESLSLIDAVMPDVVQTRQQAFREKLAQQQANAAAAAAAAAATATSTAATTPAAAAQQNPPKNGEATVNGEENGAHAINNHSKPMEIDGDVEIPPSKATVLRGHESEVFICAWNPVSDLLASGSGDSTARIWNLNENSNGGSTQLVLRHCIREGGHDVPSNKDVTSLDWNSDGTLLATGSYDGFARIWTEDGNLASTLGQHKGPIFALKWNKKGNYILSAGVDKTTIIWDAHTGEAKQQFPFHSAPALDVDWQNNTTFASCSTDMCIHVCRLGCDRPVKTFQGHTNEVNAIKWDPSGMLLASCSDDMTLKIWSMKQDACVHDLQAHSKEIYTIKWSPTGPATSNPNSNIMLASASFDSTVRLWDVERGVCIHTLTKHQEPVYSVAFSPDGKYLASGSFDKCVHIWNTQSGSLVHSYRGTGGIFEVCWNARGDKVGASASDGSVCVLDLRK | binds | binds
3 | CPEB4 (protein, UniProt Q7TN98 1-729) MGDYGFGVLVQSNTGNKSAFPVRFHPHLQPPHHHQNATPNPAAFINNNTAANGSSAGSAWLFPAPATHNIQDEILGSEKAKSQQQEQQDPLEKQQLSPSPGQEAGILPETEKAKAEENPGDSSSENSNGKEKLRIESPVLTGFDYQEATGLGTSTQPLTSSASSLTGFSNWSAAIAPSSSTIINEDASFFHQGGVPGASANNGALLFQNFPHHVSPGFGGSFSPQIGPLSQHHPHHPHFQHHHSQHQQQRRSPASPHPPPFTHRSAAFNQLPHLANNLNKPPSPWSSYQSPSPTPSSSWSPGGGGYGGWGASQGRDHRRGLNGGITPLNSISPLKKNFASNHIQLQKYARPSSAFAPKSWMEDSLNRADNIFPFPERPRTFDMHSLESSLIDIMRAENDSIKGRLNYSYPGSDSSLLINARTYGRRRGQSSLFPMEDGFLDDGRGDQPLHSGLGSPHCFTHQNGERVERYSRKVFVGGLPPDIDEDEITASFRRFGPLIVDWPHKAESKSYFPPKGYAFLLFQDESSVQALIDACIEEDGKLYLCVSSPTIKDKPVQIRPWNLSDSDFVMDGSQPLDPRKTIFVGGVPRPLRAVELAMIMDRLYGGVCYAGIDTDPELKYPKGAGRVAFSNQQSYIAAISARFVQLQHGEIDKRVEVKPYVLDDQLCDECQGARCGGKFAPFFCANVTCLQYYCEYCWAAIHSRAGREFHKPLVKEGGDRPRHISFRWN | – | binds
4 | BCL9 (protein, UniProt Q9D219 1-1425) MHPSNPKVRSSPSGNTQSSPKSKQEVMVRPPTVMSPSGNPQLDSKFSNQGKPGGSASQSQPSPCDSKSGGHTPKALPGPGGSMGLKNGAGNGAKGKGKRERSISADSFDQRDPGTPNDDSDIKECNSADHIKSQESQHTPHSMTPSTATAPRSSTPSHGQTPAPEPISAQKTPAKVVYVFSTEMANKAAEAVLKGQVETIVSFHIQNISNSKSERSTAPLNTQIPTLRNDPKPLPQQPPAPANQDQNSSQNARLQPTPPIQAPAPKPTAAPRPLDRESPGVENKLIPPVGSPGSSTPLPPDGTGPNSTPNNRAVTPVSQGSNSSSADPKAPPPPPVSGGEPPTLGENPDGLSQEQLEHRERSLQTLRDIQRMLFPDEKEFTAGQTGGPQQNTGVLDGPQKKPDGPIQAMMSQSQSLGKGPGPRTDVGAPFGPQGHRDVPFSPDEMVPPNMSSQSGPIGPDHLDHMTPEQIAWLKLQQEFYEEKRRKQEQVVVQQCSLQDMMVHQHGPRGVVRGPPPPYQMAPGEGWAPGAEPFPDGINISHSLPPRGMAPHPNMPGSQMRLPGFAGMINSEMEGPNVPNPASRPGLSGVSWPDDVPKIPDGRNFPPGQGVFSGPGRGERFPNPQGLSEEMFQQQLAEKQLALPPGMSMEGIRPGMEMNRMIPGSQRHMEPGSNPIFPRIPVEGPLSPSRGDFPKGMPPQIGPGRELEFGMVPGGMKGEVNLNVNMGSSSQMIPQKMREAGAGPEEMMKLRPGSSEMLPAQQKMVPLPFGEHPQQEYGVGPRPFLPMSQGPGSNSGLRNLREPIGPDQRTNSRLSHMPPLPLNPSSNPTSLSTAPPVQRGLGRKPLDISVAGSQVHSPGINPLKSPTMHQVQSPMLGSPSGNLKSPQTPSQLAGMLAGPAAAASIKSPPVLGSAAASPVHLKSPSLPAPSPGWTSSPKPPLQSPGIPPNHKAPLTMASPAMLGSVESGGPPPPTASQPASVNIPGSLPSSTPYPMPPEPTLSQNPLSIMMSRMSKFAMPSSTPLYHDAIKTVASSDDDSPPARSPNLPSMNSMPGMGINTQNPRISGPNPVVPMPTLSPMGMTQPLSHSNQMPSPNAMGPSIPPHGVPMGPGLMSHNPIMGHGSQEPPMVPQGRMGFPQGFPPVQSPPQQVPFPHNGPTGGQGNFPGGIGFPGEGPLGRPSNLPQSSADPALCKPGGPGAPDSFTVLGNSMPSVFTDPDLQEVIRPGATGIPEFDLSRIIPSEKPSQTLQYFPRGEVPGRKQPQGPGPGFSHMQGMMSDQAPRMGLALPGMGGPGPVGTPDIPLGTSPSMPGHNPMRPPAFLQQGMMGPHHRMMSPAQSTVPGPATLMTNPAAAVGMIPGKDRGPAGLYTHPGPVGSPGMMMSMQGMMGPQQNIMIPPQMRPRGMAADVGMGGFSQGPGNPGNMMF | binds | –

More lines, now with the values ahead:

Row | binding [1] | binding [2] | Binder
5 | binds | – | ZFP281 (protein, UniProt Q99LI5 1-893) MKIGSGFLSGGGGPSSSGGSGSGGSSGSASGGSGGGRRAEMEPTFPQSMVMFNHRLPPVTSFTRPAGTAAPPPQCVLSSSTSAAPAAEPPPPPAPDMTFKKEPAASAAAFPSQRTSWGFLQSLVSIKQEKPADPEEQPSHHHHHHHHYGGLFAGAEERSPGLGGGEGGSHGVIQDLSLLHQHAQQQPAQHHRDVLLSSGSRTDEHGNQEPKQDANVKKAKRPKPESQGIKAKRKPSASSKPLVGEGEGAVLSPSQKPHICDHCSAAFRSSYHLRRHVLIHTGERPFQCSQCSMGFIQKYLLQRHEKIHSREKPFGCDQCSMKFIQKYHMERHKRTHSGEKPYKCDTCQQYFSRTDRLLKHRRTCGEAIAKGAASAEPGSSNHNSMGNLAVLSQGNTSSSRRKSKSKSIAIENKEHKTGKTNESQMSNNINMQSYSVEMPTVSTSGSIIGTGIDELQKRVPKLIFKKGSRKNADKSYLNFVSPLPDVVGQKSLSGKPGGSLGIVSNNSVETISLLQSTSGKQGPISSNYDDAMQFSKKRRYLPTASSNSAFSINVGHMVSQQSVIQSAGVSVLDNEAPLSLIDSSALNAEIKSCHDKSGIPDEVLQSILDQYSGKSETQKEDPFNLTEPRVDLHTSGEHSELVQEENLSPGTQTPSNDKTSMLQEYSKYLQQAFEKSTNAGFTLGHGFQFVSLSSPLHNHTLFPEKQIYTTSPLECGFGQSVTSVLPSSLPKPPFGMLFGSQPGLYLSALDATHQQLTPSQELDDLIDSQKNLETSSAFQSSSQKLTSQKEQQKNLESSTSFQIPSQELASQIDPQKDIEPRTTYQIENFAQAFGSQFKSGSRVPMTFITNSNGEVDHRVRTSVSDFSGYTNMMSDVSEPCSTRVKTPTSQSYR
6 | binds | binds | TBL1XR1 (protein, UniProt Q8BHJ5 1-514) MSISSDEVNFLVYRYLQESGFSHSAFTFGIESHISQSNINGALVPPAALISIIQKGLQYVEAEVSINEDGTLFDGRPIESLSLIDAVMPDVVQTRQQAYRDKLAQQHAAAAAAAAAATNQQGSAKNGENTANGEENGAHTIANNHTDMMEVDGDVEIPSNKAVVLRGHESEVFICAWNPVSDLLASGSGDSTARIWNLSENSTSGPTQLVLRHCIREGGQDVPSNKDVTSLDWNSEGTLLATGSYDGFARIWTKDGNLASTLGQHKGPIFALKWNKKGNFILSAGVDKTTIIWDAHTGEAKQQFPFHSAPALDVDWQSNNTFASCSTDMCIHVCKLGQDRPIKTFQGHTNEVNAIKWDPTGNLLASCSDDMTLKIWSMKQDNCVHDLQAHNKEIYTIKWSPTGPGTNNPNANLMLASASFDSTVRLWDVDRGICIHTLTKHQEPVYSVAFSPDGRYLASGSFDKCVHIWNTQTGALVHSYRGTGGIFEVCWNAAGDKVGASASDGSVCVLDLRK

No constants are given. Whether binding was seen depends on the method and setting. Binding seen in cells or lysates may run through a third protein. A yes stands for co-enrichment or nearness to the bait. Other partners may have been found. Where a sequence is shown, tags or fusion partners need not be part of it.
